Laboratory results published in article doi:10.1101/650358.

Biological target: T1, Arabidopsis thaliana LONESOME HIGHWAY (AtLHW), BiFC fusion (Arabidopsis thaliana) (UniProt Q9XIN0)
T1 sequence: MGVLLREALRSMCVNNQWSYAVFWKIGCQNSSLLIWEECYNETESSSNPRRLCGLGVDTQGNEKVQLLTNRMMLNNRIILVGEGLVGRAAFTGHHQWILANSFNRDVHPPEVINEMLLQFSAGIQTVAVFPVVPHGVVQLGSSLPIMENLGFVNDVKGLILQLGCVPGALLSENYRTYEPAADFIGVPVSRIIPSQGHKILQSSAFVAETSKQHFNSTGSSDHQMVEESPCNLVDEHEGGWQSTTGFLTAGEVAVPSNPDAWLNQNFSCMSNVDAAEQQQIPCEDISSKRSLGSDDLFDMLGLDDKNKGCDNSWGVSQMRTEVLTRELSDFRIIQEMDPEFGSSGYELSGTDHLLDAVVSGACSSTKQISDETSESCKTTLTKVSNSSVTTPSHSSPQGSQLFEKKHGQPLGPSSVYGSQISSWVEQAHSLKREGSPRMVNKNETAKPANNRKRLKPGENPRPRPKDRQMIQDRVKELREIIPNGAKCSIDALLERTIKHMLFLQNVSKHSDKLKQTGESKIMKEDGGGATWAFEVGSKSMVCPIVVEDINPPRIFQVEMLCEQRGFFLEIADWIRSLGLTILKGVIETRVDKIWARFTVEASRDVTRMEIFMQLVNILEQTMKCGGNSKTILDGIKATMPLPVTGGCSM
Assay: split reporter

With “Marchantia polymorpha TMO5 ortholog (MpTMO5), BiFC fusion” the binding was “binds”.

No constants are given. Whether binding was seen depends on the method and setting. In cells and extracts the contact can be indirect. Binding can be weak; no strength is given. Where a sequence is shown, tags or fusion partners need not be part of it.
